Measured values published in patent publication US6942981.

Assays:
[1] = biological target: GST-KIAA0561 PDZ domain fusion protein; assay: G assay
[2] = biological target: GST-KIAA0561 PDZ domain fusion protein; assay: A/G assays (Table 2)

B1: DOCK2 C-terminal peptide AA40L (peptide)
peptide: LASKSAEEGKQIPDSLSTDL
modifications: biotin at the amino-terminus
With B1 the binding [1] was “binds”.

B2: FasLigand C-terminal peptide AA23L-M (peptide)
peptide: SSKSKSSEESQTFFGLYKL
modifications: biotin at the amino-terminus
In the case of B2, the binding [2] is reported as “binds” and the binding [1] is reported as “binds”.

Results are given in words; binding and its absence hold for the method and conditions named. Binding calls can cover weak binding; strength is not graded here.
